The source of these data is doi:10.1101/2022.04.12.488020.

Sequences of proteins named here, by UniProt entry; tags and fusion partners are left off. Residues count along the entry.
UniProt P06179: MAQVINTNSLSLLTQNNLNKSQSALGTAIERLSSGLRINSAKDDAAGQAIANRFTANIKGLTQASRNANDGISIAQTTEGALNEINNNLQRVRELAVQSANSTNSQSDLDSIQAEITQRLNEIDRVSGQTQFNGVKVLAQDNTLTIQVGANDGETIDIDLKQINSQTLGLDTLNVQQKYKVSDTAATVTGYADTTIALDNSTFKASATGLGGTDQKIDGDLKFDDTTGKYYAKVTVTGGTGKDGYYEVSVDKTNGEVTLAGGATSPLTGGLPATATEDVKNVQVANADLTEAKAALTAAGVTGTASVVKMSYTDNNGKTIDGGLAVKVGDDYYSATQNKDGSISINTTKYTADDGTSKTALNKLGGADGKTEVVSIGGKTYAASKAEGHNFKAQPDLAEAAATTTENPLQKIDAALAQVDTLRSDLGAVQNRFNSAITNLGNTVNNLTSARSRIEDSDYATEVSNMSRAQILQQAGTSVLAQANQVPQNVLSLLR
UniProt O60602, residues 21-858: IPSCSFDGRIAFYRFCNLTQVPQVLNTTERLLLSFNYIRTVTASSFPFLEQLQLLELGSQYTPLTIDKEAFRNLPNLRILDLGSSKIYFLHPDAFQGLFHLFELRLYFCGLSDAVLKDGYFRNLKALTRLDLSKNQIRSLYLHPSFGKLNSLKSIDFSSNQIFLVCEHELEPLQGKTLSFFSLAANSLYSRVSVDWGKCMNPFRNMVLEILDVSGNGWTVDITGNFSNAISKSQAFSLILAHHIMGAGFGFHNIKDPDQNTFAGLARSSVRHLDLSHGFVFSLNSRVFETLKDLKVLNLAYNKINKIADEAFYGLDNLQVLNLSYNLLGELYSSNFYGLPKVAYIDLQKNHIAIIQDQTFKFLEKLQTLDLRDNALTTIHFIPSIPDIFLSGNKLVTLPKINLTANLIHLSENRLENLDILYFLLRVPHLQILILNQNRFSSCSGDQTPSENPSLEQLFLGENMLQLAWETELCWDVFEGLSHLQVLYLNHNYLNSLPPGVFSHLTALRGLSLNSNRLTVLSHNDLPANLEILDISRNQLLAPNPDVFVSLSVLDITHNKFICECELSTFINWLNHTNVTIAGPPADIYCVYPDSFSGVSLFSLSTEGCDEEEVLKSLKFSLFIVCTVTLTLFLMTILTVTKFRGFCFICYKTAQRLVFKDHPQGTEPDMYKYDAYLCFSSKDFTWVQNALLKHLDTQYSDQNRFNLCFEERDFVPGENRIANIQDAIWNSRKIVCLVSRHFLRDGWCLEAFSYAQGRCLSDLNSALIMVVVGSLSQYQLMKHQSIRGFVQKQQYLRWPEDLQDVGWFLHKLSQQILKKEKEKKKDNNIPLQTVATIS

Results are given in words; binding and its absence hold for the method and conditions named. Binding seen in cells or lysates may run through a third protein. Some results given as binding are weak or reduced against the parent protein; the word gives no strength. For some assays here: Sequences can lack the tags named with a protein.

For test [1], the target named is FliC flagellin of Salmonella enterica serovar Typhimurium, 6xHis-Myc-tagged (Salmonella enterica serovar Typhimurium) (UniProt P06179). Briefly: pull-down.
In test [2] the target is T1, FlaA flagellin of Helicobacter pylori (HpFlaA), 6xHis-Myc-tagged (Helicobacter pylori) (UniProt P0A0S1).
T1 sequence: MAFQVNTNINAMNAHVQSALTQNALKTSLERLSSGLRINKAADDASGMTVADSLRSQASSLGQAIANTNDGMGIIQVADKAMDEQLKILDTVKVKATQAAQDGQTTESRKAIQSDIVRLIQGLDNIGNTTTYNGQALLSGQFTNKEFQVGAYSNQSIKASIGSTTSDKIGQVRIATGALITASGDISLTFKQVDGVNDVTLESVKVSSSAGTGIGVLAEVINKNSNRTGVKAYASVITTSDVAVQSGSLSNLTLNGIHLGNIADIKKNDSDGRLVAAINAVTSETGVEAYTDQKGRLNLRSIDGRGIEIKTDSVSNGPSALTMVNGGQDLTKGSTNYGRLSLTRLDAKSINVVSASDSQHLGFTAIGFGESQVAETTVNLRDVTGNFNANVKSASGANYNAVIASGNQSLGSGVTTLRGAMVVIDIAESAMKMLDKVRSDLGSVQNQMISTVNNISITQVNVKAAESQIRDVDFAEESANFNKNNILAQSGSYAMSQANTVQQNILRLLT
Kind of test: pull-down.

With “full-length human TLR5, HA-tagged (TLR5-HA) (from UniProt O60602 21-858) (receptor)”, the binding entry is recorded as “binds” in test [1] and “no binding” in test [2].
